Laboratory results: PubChem BioAssay AID686943 (Drosophila RNAi Screening Center, 2013)
In all, the deposit lists about 23,000 reagents; shown is a random part of those that have a named target and a result. 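Extra replicates exist only for a retested subset of genes; insulin dose and duration not given; both raised and lowered dpERK matter.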 The numbers tell different reagents against one gene apart. Not all columns of the deposit are shown. Not stated in the record: the amount of reagent, the time to read-out.

Test: 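Knockdowns that increase or decrease active ERK after insulin receptor stimulation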 (primary screen)
Cell system: Drosophila S2R+ haemocyte-like cells expressing YFP-tagged ERK (Rolled)
Knock-down reagent: long dsRNA against Drosophila genes
Treatment: insulin stimulation versus unstimulated cells; dose and duration not given
Measured: 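Per-plate z-scores of phospho-ERK immunostaining normalised to YFP-tagged ERK, measured with and without insulin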
Direction: replicate 1, z-score of dpERK with insulin and replicate 2, z-score of dpERK with insulin: higher = more active ERK per ERK-YFP after insulin

CG4820 | replicate 1, z-score of dpERK with insulin = -0.2; replicate 2, z-score of dpERK with insulin = 0.1
CG13116 #1 | replicate 1, z-score of dpERK with insulin = 0.94; replicate 2, z-score of dpERK with insulin = 0.6
CG13116 #2 | replicate 1, z-score of dpERK with insulin = -0.64; replicate 2, z-score of dpERK with insulin = -3
t-cup (tetleys-cup) | replicate 1, z-score of dpERK with insulin = 0.87; replicate 2, z-score of dpERK with insulin = 2.44
Spred (Sprouty-related protein with EVH-1 domain) | replicate 1, z-score of dpERK with insulin = 1.25; replicate 2, z-score of dpERK with insulin = 1.32
CG9254 | replicate 1, z-score of dpERK with insulin = 0.37; replicate 2, z-score of dpERK with insulin = -0.53
Rpt6R (Regulatory particle triple-A ATPase 6-related) | replicate 1, z-score of dpERK with insulin = 1.3; replicate 2, z-score of dpERK with insulin = 2.09
CG15177 | replicate 1, z-score of dpERK with insulin = -0.52; replicate 2, z-score of dpERK with insulin = -0.07
Ns2 (Nucleostemin 2) | replicate 1, z-score of dpERK with insulin = 1.35; replicate 2, z-score of dpERK with insulin = 0.39
CBP (sarcoplasmic calcium-binding protein) | replicate 1, z-score of dpERK with insulin = 1.17; replicate 2, z-score of dpERK with insulin = 0.29
CG5676 | replicate 1, z-score of dpERK with insulin = -0.6; replicate 2, z-score of dpERK with insulin = 0.39
Gbs-76A (Glycogen binding subunit 76A) | replicate 1, z-score of dpERK with insulin = -0.49; replicate 2, z-score of dpERK with insulin = -1.06
Obp56d (Odorant-binding protein 56d) | replicate 1, z-score of dpERK with insulin = -0.36; replicate 2, z-score of dpERK with insulin = 0.11
Ubc7 (Ubiquitin conjugating enzyme 7) | replicate 1, z-score of dpERK with insulin = -0.29; replicate 2, z-score of dpERK with insulin = 0.07
phr (photorepair) | replicate 1, z-score of dpERK with insulin = 1.1; replicate 2, z-score of dpERK with insulin = 0
JMJD7 (Jumonji domain containing 7) | replicate 1, z-score of dpERK with insulin = 0.89; replicate 2, z-score of dpERK with insulin = 0.92
Acp26Aa (Accessory gland protein 26Aa) | replicate 1, z-score of dpERK with insulin = 0.23; replicate 2, z-score of dpERK with insulin = 0.42
Ir94d (Ionotropic receptor 94d) | replicate 1, z-score of dpERK with insulin = -0.28; replicate 2, z-score of dpERK with insulin = 0.01
bru1 (bruno 1) #1 | replicate 1, z-score of dpERK with insulin = -7.16; replicate 2, z-score of dpERK with insulin = -5.4
bru1 (bruno 1) #2 | replicate 1, z-score of dpERK with insulin = -0.79; replicate 2, z-score of dpERK with insulin = -2.09
bru1 (bruno 1) #3 | replicate 1, z-score of dpERK with insulin = 0.47; replicate 2, z-score of dpERK with insulin = -0.18
bru1 (bruno 1) #4 | replicate 1, z-score of dpERK with insulin = 1.28; replicate 2, z-score of dpERK with insulin = -0.04
bru1 (bruno 1) #5 | replicate 1, z-score of dpERK with insulin = 0.52; replicate 2, z-score of dpERK with insulin = -0.16

Records listed so far whose gene name starts with B or b (5):
bru1 (bruno 1) #1 | replicate 1, z-score of dpERK with insulin = -7.16; replicate 2, z-score of dpERK with insulin = -5.4
bru1 (bruno 1) #2 | replicate 1, z-score of dpERK with insulin = -0.79; replicate 2, z-score of dpERK with insulin = -2.09
bru1 (bruno 1) #3 | replicate 1, z-score of dpERK with insulin = 0.47; replicate 2, z-score of dpERK with insulin = -0.18
bru1 (bruno 1) #4 | replicate 1, z-score of dpERK with insulin = 1.28; replicate 2, z-score of dpERK with insulin = -0.04
bru1 (bruno 1) #5 | replicate 1, z-score of dpERK with insulin = 0.52; replicate 2, z-score of dpERK with insulin = -0.16
